Data: patent US20230242673A1
These are yes or no findings as the source states them, for the method shown. Some entries that bind do so weakly or less than the wild type.

By UniProt entry, the sequences of proteins in these tests, tags left out. Where a name states a change or a piece, a line headed by the entry shows the natural chain unless it says otherwise.
UniProt Q8NBP7: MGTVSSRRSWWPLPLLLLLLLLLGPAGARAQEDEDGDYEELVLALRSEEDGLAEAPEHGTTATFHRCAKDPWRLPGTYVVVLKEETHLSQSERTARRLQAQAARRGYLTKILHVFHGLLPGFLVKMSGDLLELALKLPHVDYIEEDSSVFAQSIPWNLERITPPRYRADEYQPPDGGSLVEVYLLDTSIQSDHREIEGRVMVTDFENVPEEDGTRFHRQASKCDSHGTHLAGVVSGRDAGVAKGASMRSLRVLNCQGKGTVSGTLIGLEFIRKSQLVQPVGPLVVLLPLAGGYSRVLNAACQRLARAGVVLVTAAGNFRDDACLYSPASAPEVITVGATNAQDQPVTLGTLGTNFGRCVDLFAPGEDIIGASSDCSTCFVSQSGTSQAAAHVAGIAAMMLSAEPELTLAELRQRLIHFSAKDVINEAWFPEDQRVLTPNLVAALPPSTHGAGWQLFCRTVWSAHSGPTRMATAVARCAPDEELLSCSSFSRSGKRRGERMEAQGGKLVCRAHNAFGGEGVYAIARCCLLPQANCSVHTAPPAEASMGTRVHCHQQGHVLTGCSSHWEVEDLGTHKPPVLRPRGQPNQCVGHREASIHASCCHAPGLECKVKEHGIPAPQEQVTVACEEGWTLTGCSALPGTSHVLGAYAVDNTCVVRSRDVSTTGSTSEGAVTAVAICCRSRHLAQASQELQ

How the values were obtained:
[1] = molecular target: original PCSK9 (PCSK9 (human) recombinant protein, Abnova Cat No: H00255738-P01) (human) (UniProt Q8NBP7); assay: ELISA, original PCSK9 coated at 1 ug/mL, IgG in threefold dilutions from 10 ug/mL
[2] = molecular target: original PCSK9 (PCSK9 (human) recombinant protein, Abnova Cat No: H00255738-P01) (human) (UniProt Q8NBP7); assay: Octet, IgG immobilized, original PCSK9 as analyte in twofold dilutions from 200 nM, 1:1 model

| Binder | binding [1] | binding [2] |
| --- | --- | --- |
| hz7D1.11 IgG (antibody, V domains shown) VH: QVQLVQSGAEVKKPGASVKVSCKASGFNIKDYYMHWVRQAPGQGLEWIGYIDPENGDTEYAPKFQGRATMTADTSISTAYMELSRLRSDDTAVYYCRSSPFTYWGQGTLVTVSS VL: DVVMTQSPLSLPVTLGQPASISCKSSQSLLDSDGKTYLNWLQQRPGQSPRRLIYLVSKLDSGVPDRFSGSGSGTDFTLKISRVEAEDVGVYYCWQGTHFPQTFGGGTKVEIKR | binds | binds |
| hz7D1.22 IgG (antibody, V domains shown) VH: QVQLVQSGAEVKKPGASVKVSCKASGYTFKDYYMHWVRQAPGQGLEWMGYIDPENGDTEYAPKFQGRVTMTADTSISTAYMELSRLRSDDTAVYYCRSSPFTYWGQGTLVTVSS VL: DVVMTQSPLSLPVTLGQPASISCKSSQSLLDSDGKTYLNWFQQRPGQSPRRLIYLVSKLDSGVPDRFSGSGSGTDFTLKISRVEAEDVGVYYCWQGTHFPQTFGGGTKVEIKR | binds | binds |
